Measurements from publication PMC4616163, “Inverse relationship between chitobiase and transglycosylation activities of chitinase-D from Serratia proteamaculans revealed by mutational and biophysical analyses” (Scientific Reports, 2015).

System: SpChiD mutant E153A
Experiment: DSC ligand-induced thermal stability of E153A with CHOS DP2–6
Type: binding, Serratia proteamaculans
Details: E153A alone or with 1 mM ligand
Method: DSC measurements were carried out on a MicroCal VP-DSC (MicroCal LLC, Northampton, MA, USA). SpChiD and mutant E153A were dialyzed against 20 mM potassium phosphate buffer, pH 8.0. The dialysate was used as the reference. Protein samples (0.5 mg/mL) were heated from 10–70 °C at a scan rate of 30°/h to assess the effect of ligand binding on thermal unfolding. Mutant E153A was pre-incubated for 1 h with 1 mM of each ligand (DP2–6) before scanning. Sample and reference solutions were degassed prior to scanning to eliminate bubbling effects. Baseline reproducibility was verified by multiple scans, and the reversibility of protein unfolding was monitored by scanning the sample twice. Buffer scans were subtracted from thermograms obtained in the presence or absence of CHOS before further analysis. Absolute and excess heat capacities were analyzed using a non-two-state fit of the thermogram in Origin v7.0.

Row | SMILES | ΔHC Transition-I [kcal/mol] | ΔHC Transition-II [kcal/mol] | ΔHC/ΔHv Transition-I | ΔHC/ΔHv Transition-II | ΔHv Transition-I [kcal/mol] | ΔHv Transition-II [kcal/mol]
1 | CC(=O)N[C@H]1[C@H](O[C@H]2[C@H](O)[C@@H](NC(C)=O)C(O)O[C@@H]2CO)O[C@H](CO)[C@@H](O)[C@@H]1O (stereo partly drawn) [DP2] | 798.5 ± 7.14 | 22.03 ± 4.1 | 7.49 | 0.04 | 106.5 ± 1.07 | 499.5 ± 92.1
2 | CC(=O)N[C@H]1[C@H](O[C@H]2[C@H](O)[C@@H](NC(C)=O)C(O)O[C@@H]2CO)O[C@H](CO)[C@@H](O[C@@H]2O[C@H](CO)[C@@H](O)[C@H](O)[C@H]2NC(C)=O)[C@@H]1O (stereo partly drawn) [DP3] | 395.1 ± 49.3 | 556.6 ± 46.4 | 4.53 | 3.36 | 87.17 ± 3.71 | 165.3 ± 6.23
3 | CC(=O)N[C@H]1[C@H](O[C@H]2[C@H](O)[C@@H](NC(C)=O)C(O)O[C@@H]2CO)O[C@H](CO)[C@@H](O[C@@H]2O[C@H](CO)[C@@H](O[C@@H]3O[C@H](CO)[C@@H](O)[C@H](O)[C@H]3NC(C)=O)[C@H](O)[C@H]2NC(C)=O)[C@@H]1O (stereo partly drawn) [DP4] | 361.6 ± 38.7 | 643.0 ± 35.0 | 5.09 | 4.19 | 70.95 ± 3.63 | 153.2 ± 4.33
4 | CC(=O)N[C@H]1[C@H](O[C@H]2[C@H](O)[C@@H](NC(C)=O)[C@H](O[C@H]3[C@H](O)[C@@H](NC(C)=O)C(O)O[C@@H]3CO)O[C@@H]2CO)O[C@H](CO)[C@@H](O[C@@H]2O[C@H](CO)[C@@H](O[C@@H]3O[C@H](CO)[C@@H](O)[C@H](O)[C@H]3NC(C)=O)[C@H](O)[C@H]2NC(C)=O)[C@@H]1O (stereo partly drawn) [DP5] | 537.9 ± 61.8 | 500.5 ± 59.8 | 4.34 | 2.46 | 123.8 ± 3.94 | 203.4 ± 10.2
5 | CC(=O)N[C@H]1[C@H](O[C@H]2[C@H](O)[C@@H](NC(C)=O)[C@H](O[C@H]3[C@H](O)[C@@H](NC(C)=O)C(O)O[C@@H]3CO)O[C@@H]2CO)O[C@H](CO)[C@@H](O[C@@H]2O[C@H](CO)[C@@H](O[C@@H]3O[C@H](CO)[C@@H](O[C@@H]4O[C@H](CO)[C@@H](O)[C@H](O)[C@H]4NC(C)=O)[C@H](O)[C@H]3NC(C)=O)[C@H](O)[C@H]2NC(C)=O)[C@@H]1O (stereo partly drawn) [DP6, chitohexaose] | 379.6 ± 36.7 | 234.5 ± 35.2 | 2.14 | 0.76 | 176.8 ± 4.67 | 306.9 ± 22.1
